In the supplement of paper PMC8728848:
This is one part of the list.

Tests used:
Experiment in all cases: glycan array binding signal (z-score within array); higher = stronger binding
Settings in all cases: glycan notation: IUPAC condensed, linker removed
[1] = target: GlcNAc(b1-3)Gal(b1-4)Glc
Outline: (§1)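 Columns mapping to the same glycan were averaged after glycan names were converted to IUPAC-condensed notation. The data come from 3228 arrays in the Consortium for Functional Glycomics database, limited to those with an available protein sequence. Binding is reported as a within-array Z-score averaged across arrays of one protein sequence and across linkers.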

[2] = target: GlcNAc(b1-3)Gal(b1-4)GlcNAc
Outline: as §1

[3] = target: GlcNAc(b1-3)Gal(b1-4)GlcNAc(b1-2)Man(a1-3)[GlcNAc(b1-3)Gal(b1-4)GlcNAc(b1-2)Man(a1-6)]Man(b1-4)GlcNAc(b1-4)GlcNAc
Outline: as §1

[4] = target: GlcNAc(b1-3)Gal(b1-4)GlcNAc(b1-2)Man(a1-3)[GlcNAc(b1-3)Gal(b1-4)GlcNAc(b1-2)Man(a1-6)]Man(b1-4)GlcNAc(b1-4)[Fuc(a1-6)]GlcNAc
Outline: as §1

[5] = target: GlcNAc(b1-3)Gal(b1-4)GlcNAc(b1-2)[GlcNAc(b1-3)Gal(b1-4)GlcNAc(b1-6)]Man(a1-6)[GlcNAc(b1-3)Gal(b1-4)GlcNAc(b1-2)Man(a1-3)]Man(b1-4)GlcNAc(b1-4)GlcNAc
Outline: as §1

[6] = target: GlcNAc(b1-3)Gal(b1-4)GlcNAc(b1-3)Gal(b1-4)GlcNAc
Outline: as §1

[7] = target: GlcNAc(b1-3)Gal(b1-4)GlcNAc(b1-3)Gal(b1-4)GlcNAc(b1-2)Man(a1-3)[GlcNAc(b1-3)Gal(b1-4)GlcNAc(b1-3)Gal(b1-4)GlcNAc(b1-2)Man(a1-6)]Man(b1-4)GlcNAc(b1-4)GlcNAc
Outline: as §1

[8] = target: GlcNAc(b1-3)Gal(b1-4)GlcNAc(b1-3)Gal(b1-4)GlcNAc(b1-2)Man(a1-3)[GlcNAc(b1-3)Gal(b1-4)GlcNAc(b1-3)Gal(b1-4)GlcNAc(b1-2)Man(a1-6)]Man(b1-4)GlcNAc(b1-4)[Fuc(a1-6)]GlcNAc
Outline: as §1

[9] = target: GlcNAc(b1-3)Gal(b1-4)GlcNAc(b1-3)Gal(b1-4)GlcNAc(b1-2)[GlcNAc(b1-3)Gal(b1-4)GlcNAc(b1-3)Gal(b1-4)GlcNAc(b1-6)]Man(a1-6)[GlcNAc(b1-3)Gal(b1-4)GlcNAc(b1-3)Gal(b1-4)GlcNAc(b1-2)Man(a1-3)]Man(b1-4)GlcNAc(b1-4)[Fuc(a1-6)]GlcNAc
Outline: as §1

[10] = target: GlcNAc(b1-3)Gal(b1-4)GlcNAc(b1-3)Gal(b1-4)GlcNAc(b1-3)Gal(b1-4)GlcNAc(b1-2)Man(a1-3)[GlcNAc(b1-3)Gal(b1-4)GlcNAc(b1-3)Gal(b1-4)GlcNAc(b1-3)Gal(b1-4)GlcNAc(b1-2)Man(a1-6)]Man(b1-4)GlcNAc(b1-4)GlcNAc
Outline: as §1

[11] = target: GlcNAc(b1-3)Gal(b1-4)GlcNAc(b1-3)Gal(b1-4)GlcNAc(b1-3)Gal(b1-4)GlcNAc(b1-2)Man(a1-3)[GlcNAc(b1-3)Gal(b1-4)GlcNAc(b1-3)Gal(b1-4)GlcNAc(b1-3)Gal(b1-4)GlcNAc(b1-2)Man(a1-6)]Man(b1-4)GlcNAc(b1-4)[Fuc(a1-6)]GlcNAc
Outline: as §1

[12] = target: GlcNAc(b1-3)Gal(b1-4)GlcNAc(b1-3)Gal(b1-4)GlcNAc(b1-3)Gal(b1-4)GlcNAc(b1-2)[GlcNAc(b1-3)Gal(b1-4)GlcNAc(b1-3)Gal(b1-4)GlcNAc(b1-3)Gal(b1-4)GlcNAc(b1-6)]Man(a1-6)[GlcNAc(b1-3)Gal(b1-4)GlcNAc(b1-3)Gal(b1-4)GlcNAc(b1-3)Gal(b1-4)GlcNAc(b1-2)Man(a1-3)]Man(b1-4)GlcNAc(b1-4)[Fuc(a1-6)]GlcNAc
Outline: as §1

[13] = target: GlcNAc(b1-3)Gal(b1-4)GlcNAc(b1-3)Gal(b1-4)GlcNAc(b1-3)Gal(b1-4)GlcNAc(b1-3)Gal(b1-4)GlcNAc(b1-2)Man(a1-3)[GlcNAc(b1-3)Gal(b1-4)GlcNAc(b1-3)Gal(b1-4)GlcNAc(b1-3)Gal(b1-4)GlcNAc(b1-3)Gal(b1-4)GlcNAc(b1-2)Man(a1-6)]Man(b1-4)GlcNAc(b1-4)GlcNAc
Outline: as §1

[14] = target: GlcNAc(b1-3)Gal(b1-4)GlcNAc(b1-3)Gal(b1-4)GlcNAc(b1-3)Gal(b1-4)GlcNAc(b1-3)Gal(b1-4)GlcNAc(b1-2)Man(a1-3)[GlcNAc(b1-3)Gal(b1-4)GlcNAc(b1-3)Gal(b1-4)GlcNAc(b1-3)Gal(b1-4)GlcNAc(b1-3)Gal(b1-4)GlcNAc(b1-2)Man(a1-6)]Man(b1-4)GlcNAc(b1-4)[Fuc(a1-6)]GlcNAc
Outline: as §1

[15] = target: GlcNAc(b1-3)Gal(b1-4)GlcNAc(b1-3)Gal(b1-4)GlcNAc(b1-3)Gal(b1-4)GlcNAc(b1-3)Gal(b1-4)GlcNAc(b1-2)[GlcNAc(b1-3)Gal(b1-4)GlcNAc(b1-3)Gal(b1-4)GlcNAc(b1-3)Gal(b1-4)GlcNAc(b1-3)Gal(b1-4)GlcNAc(b1-6)]Man(a1-6)[GlcNAc(b1-3)Gal(b1-4)GlcNAc(b1-3)Gal(b1-4)GlcNAc(b1-3)Gal(b1-4)GlcNAc(b1-3)Gal(b1-4)GlcNAc(b1-2)Man(a1-3)]Man(b1-4)GlcNAc(b1-4)[Fuc(a1-6)]GlcNAc
Outline: as §1

[16] = target: GlcNAc(b1-3)Gal(b1-4)GlcNAc(b1-3)Gal(b1-4)GlcNAc(b1-3)GalNAc
Outline: as §1

[17] = target: GlcNAc(b1-3)Gal(b1-4)GlcNAc(b1-3)GalNAc
Outline: as §1

[18] = target: GlcNAc(b1-3)Gal(b1-4)GlcNAc(b1-3)[GlcNAc(b1-3)Gal(b1-4)GlcNAc(b1-3)]GalNAc
Outline: as §1

[19] = target: GlcNAc(b1-3)Gal(b1-4)GlcNAc(b1-6)[Gal(b1-3)]GalNAc
Outline: as §1

[20] = target: GlcNAc(b1-3)Gal(b1-4)GlcNAc(b1-6)[GlcNAc(b1-3)Gal(b1-3)]GalNAc
Outline: as §1

[21] = target: GlcNAc(b1-3)Gal(b1-4)GlcNAc(b1-6)[GlcNAc(b1-3)]Gal(b1-4)GlcNAc
Outline: as §1

[22] = target: GlcNAc(b1-3)GalNAc
Outline: as §1

[23] = target: GlcNAc(b1-3)Man
Outline: as §1

[24] = target: GlcNAc(b1-3)[GlcNAc(b1-4)][GlcNAc(b1-6)]GlcNAc
Outline: as §1

[25] = target: GlcNAc(b1-3)[GlcNAc(b1-6)]Gal(b1-4)GlcNAc
Outline: as §1

[26] = target: GlcNAc(b1-3)[GlcNAc(b1-6)]GalNAc
Outline: as §1

[27] = target: GlcNAc(b1-4)Gal(b1-4)GlcNAc
Outline: as §1

[28] = target: GlcNAc(b1-4)GlcNAc
Outline: as §1

[29] = target: GlcNAc(b1-4)GlcNAc(b1-4)GlcNAc
Outline: as §1

[30] = target: GlcNAc(b1-4)GlcNAc(b1-4)GlcNAc(b1-4)GlcNAc(b1-4)GlcNAc
Outline: as §1

[31] = target: GlcNAc(b1-4)GlcNAc(b1-4)GlcNAc(b1-4)GlcNAc(b1-4)GlcNAc(b1-4)GlcNAc
Outline: as §1

[32] = target: GlcNAc(b1-4)[GlcNAc(b1-6)]GalNAc
Outline: as §1

[33] = target: GlcNAc(b1-6)Gal(b1-4)GlcNAc
Outline: as §1

[34] = target: GlcNAc(b1-6)GalNAc
Outline: as §1

[35] = target: GlcNAc6S(b1-3)Gal(b1-4)GlcNAc
Outline: as §1

[36] = target: Kdn(a2-3)Gal(b1-3)GalNAc
Outline: as §1

[37] = target: Kdn(a2-3)Gal(b1-3)GlcNAc
Outline: as §1

[38] = target: Kdn(a2-3)Gal(b1-4)Glc
Outline: as §1

[39] = target: Kdn(a2-3)Gal(b1-4)GlcNAc
Outline: as §1

[40] = target: Kdn(a2-3)Gal(b1-4)[Fuc(a1-3)]GlcNAc
Outline: as §1

[41] = target: Kdn(a2-6)Gal(b1-4)GlcNAc
Outline: as §1

[42] = target: Man(a1-2)Man(a1-2)Man(a1-3)Man
Outline: as §1

[43] = target: Man(a1-2)Man(a1-2)Man(a1-6)[Man(a1-3)]Man
Outline: as §1

[44] = target: Man(a1-2)Man(a1-3)Man
Outline: as §1

[45] = target: Man(a1-2)Man(a1-3)[Man(a1-2)Man(a1-6)]Man
Outline: as §1

B1: SJCP3842 (Schistosoma japonicum) (protein)
chain: MFKMRIINLVNISTVLLLINLLQTKSRLVGKENGFMLTVSIYGAQLSDKMTSVPVSWTIDYEDPEKSAFKKLVTDSCDTFSEYVKSQIPKGSVDGQCTSHIFQRPGSGSGVSISLTLSFIYVDVTQPDTVALKTELEKHFANFVTIHSHKITQAQFRINQKAIVIPTGDKDAIDGSKWKIIAIIALVALAIVVIGGFIYICVK
[1]
  glycan array binding signal (z-score): -0.272
[2]
  glycan array binding signal (z-score): 0.01
[3]
  glycan array binding signal (z-score): -0.727
[4]
  glycan array binding signal (z-score): 1.52
[5]
  glycan array binding signal (z-score): 0.64
[6]
  glycan array binding signal (z-score): -1.38
[7]
  glycan array binding signal (z-score): 0.933
[8]
  glycan array binding signal (z-score): 0.736
[9]
  glycan array binding signal (z-score): 1.43
[10]
  glycan array binding signal (z-score): -0.42
[11]
  glycan array binding signal (z-score): 0.763
[12]
  glycan array binding signal (z-score): 1.87
[13]
  glycan array binding signal (z-score): -0.488
[14]
  glycan array binding signal (z-score): 0.912
[15]
  glycan array binding signal (z-score): 0.976
[16]
  glycan array binding signal (z-score): -0.06
[17]
  glycan array binding signal (z-score): -0.076
[18]
  glycan array binding signal (z-score): 0.294
[19]
  glycan array binding signal (z-score): -1.17
[20]
  glycan array binding signal (z-score): 0.908
[21]
  glycan array binding signal (z-score): -0.613
[22]
  glycan array binding signal (z-score): -0.58
[23]
  glycan array binding signal (z-score): -0.625
[24]
  glycan array binding signal (z-score): -1.18
[25]
  glycan array binding signal (z-score): 1.35
[26]
  glycan array binding signal (z-score): -0.578
[27]
  glycan array binding signal (z-score): 1.17
[28]
  glycan array binding signal (z-score): 0.094
[29]
  glycan array binding signal (z-score): -0.713
[30]
  glycan array binding signal (z-score): 0.984
[31]
  glycan array binding signal (z-score): -0.652
[32]
  glycan array binding signal (z-score): -1.62
[33]
  glycan array binding signal (z-score): -0.115
[34]
  glycan array binding signal (z-score): -0.387
[35]
  glycan array binding signal (z-score): 1.04
[36]
  glycan array binding signal (z-score): 1.25
[37]
  glycan array binding signal (z-score): 0.249
[38]
  glycan array binding signal (z-score): -1.13
[39]
  glycan array binding signal (z-score): 0.69
[40]
  glycan array binding signal (z-score): 0.333
[41]
  glycan array binding signal (z-score): -1.02
[42]
  glycan array binding signal (z-score): 1.35
[43]
  glycan array binding signal (z-score): -0.903
[44]
  glycan array binding signal (z-score): -1.03
[45]
  glycan array binding signal (z-score): -2.13
